Data as given in publication PMC12830901.
Positions count from the first letter of the chain named. These are yes or no findings as the source states them, for the method shown. In cells and extracts the contact can be indirect. Where a sequence is shown, tags or fusion partners need not be part of it.

By UniProt entry, the sequences of proteins in these tests, tags left out.
UniProt P49407: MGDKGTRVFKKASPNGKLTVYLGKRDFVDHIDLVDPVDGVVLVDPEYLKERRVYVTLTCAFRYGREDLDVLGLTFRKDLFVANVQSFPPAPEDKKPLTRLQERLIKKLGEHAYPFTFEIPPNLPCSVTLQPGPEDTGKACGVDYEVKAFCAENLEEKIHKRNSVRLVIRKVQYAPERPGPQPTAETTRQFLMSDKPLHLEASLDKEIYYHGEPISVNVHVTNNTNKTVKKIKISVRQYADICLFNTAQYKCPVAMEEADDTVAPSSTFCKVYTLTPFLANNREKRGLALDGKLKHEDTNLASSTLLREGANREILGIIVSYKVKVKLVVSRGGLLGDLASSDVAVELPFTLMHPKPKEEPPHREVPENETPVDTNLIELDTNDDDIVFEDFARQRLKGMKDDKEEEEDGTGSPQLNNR

Legend:
Assay in all cases: split reporter; receptor-SmBiT and LgBiT-mini-G, LgBiT-mini-GΔα5 or LgBiT-β-arrestin transiently co-transfected in HEK293T; live cells 48 h after transfection; NanoBiT PPI system (Promega), luminescence normalised by the expression of both constructs; in the mutant and ΔHA panels the mini-GΔα5 signal was subtracted and results given as a percentage of the reference construct
[1] = target: T1, ADGRL4 'C-terminal Fragment 1' (CTF1), HA- and SmBiT-tagged (human) (UniProt Q9HBW9)
T1 sequence: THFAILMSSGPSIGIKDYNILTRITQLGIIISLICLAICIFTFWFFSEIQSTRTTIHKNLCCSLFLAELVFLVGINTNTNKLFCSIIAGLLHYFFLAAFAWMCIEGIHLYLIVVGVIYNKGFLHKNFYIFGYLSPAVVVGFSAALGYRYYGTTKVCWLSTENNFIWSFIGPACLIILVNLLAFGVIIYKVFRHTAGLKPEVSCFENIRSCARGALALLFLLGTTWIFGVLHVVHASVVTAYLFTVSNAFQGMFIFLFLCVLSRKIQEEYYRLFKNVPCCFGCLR

[2] = target: T2, ADGRL4 'Full-Length 1' (FL1), HA- and SmBiT-tagged (human) (UniProt Q9HBW9)
T2 sequence: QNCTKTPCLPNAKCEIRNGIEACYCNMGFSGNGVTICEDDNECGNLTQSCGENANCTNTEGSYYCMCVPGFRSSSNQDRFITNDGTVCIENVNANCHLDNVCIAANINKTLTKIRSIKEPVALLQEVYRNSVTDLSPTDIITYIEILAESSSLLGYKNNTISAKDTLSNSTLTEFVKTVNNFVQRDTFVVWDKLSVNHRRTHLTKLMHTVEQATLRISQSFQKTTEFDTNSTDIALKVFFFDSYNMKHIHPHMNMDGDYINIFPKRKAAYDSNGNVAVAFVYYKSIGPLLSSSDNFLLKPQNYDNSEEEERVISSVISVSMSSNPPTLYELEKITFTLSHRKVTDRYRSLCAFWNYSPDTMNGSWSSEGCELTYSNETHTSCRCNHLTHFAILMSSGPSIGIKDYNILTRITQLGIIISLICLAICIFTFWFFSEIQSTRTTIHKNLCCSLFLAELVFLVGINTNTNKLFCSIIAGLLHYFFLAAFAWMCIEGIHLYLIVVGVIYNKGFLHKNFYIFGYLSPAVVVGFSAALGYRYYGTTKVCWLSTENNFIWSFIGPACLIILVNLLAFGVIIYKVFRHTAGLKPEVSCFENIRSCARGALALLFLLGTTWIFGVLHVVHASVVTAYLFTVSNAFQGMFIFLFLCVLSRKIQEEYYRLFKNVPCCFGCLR

[3] = target: T3, ADGRL4 'Mutated Full-Length 1' (FLmut1), HA- and SmBiT-tagged (human) (UniProt Q9HBW9)
T3 sequence: T2 sequence with H386A, T388A

binding [1]	binding [2]	binding [3]	Substance
no binding	no binding	no binding	LgBiT-βarr1 (β-arrestin 1) (from UniProt P49407 1-418)
no binding	no binding	no binding	LgBiT-βarr2 (β-arrestin 2) (from UniProt P32121 1-409)
